The target of test [1] is T1, Burkholderia glumae lipase-specific foldase (Lif) (Burkholderia glumae) (UniProt Q05490).
T1 sequence: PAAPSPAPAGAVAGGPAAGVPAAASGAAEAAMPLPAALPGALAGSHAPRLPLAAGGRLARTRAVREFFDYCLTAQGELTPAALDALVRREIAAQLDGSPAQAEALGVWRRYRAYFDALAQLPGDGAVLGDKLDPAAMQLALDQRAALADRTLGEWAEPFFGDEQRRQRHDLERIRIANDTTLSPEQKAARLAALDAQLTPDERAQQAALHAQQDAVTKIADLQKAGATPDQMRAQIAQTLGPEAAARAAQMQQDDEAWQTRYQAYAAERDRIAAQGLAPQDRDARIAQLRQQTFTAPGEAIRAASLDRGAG
In words: pull-down; IMAC column retention on a NiNTA spin column: 30 ug LipA-Lif complex in 400 ul 100 mM Tris-HCl pH 8.0 (native conditions, no guHCl), 16 h at 25 C; His-tagged Lif held on the column; eluted with 400 mM imidazole; SDS-PAGE; both purified.

Test [2] concerns the target T1, Burkholderia glumae lipase-specific foldase (Lif) (Burkholderia glumae). In words: pull-down; IMAC column retention on a NiNTA spin column: 30 ug LipA-Lif complex pre-incubated 16 h at 25 C in 100 mM Tris-HCl pH 8.0 with 1.2 M guHCl (LipA as LipAg); His-tagged Lif held on the column; eluted with 400 mM imidazole; SDS-PAGE; both purified.

No constants are given. Whether binding was seen depends on the method and setting. For some assays here: Binding can be weak; no strength is given.

For “Burkholderia glumae lipase (LipA; EC 3.1.1.3) (enzyme)”, the binding result is reported as “binds” in test [1] and “no binding (only with 1.2 M guHCl)” in test [2].

Values taken from PMC3352829.
